These are yes or no findings as the source states them, for the method shown. Binding seen in cells or lysates may run through a third protein. Some entries that bind do so weakly or less than the wild type.
Biological target: Transcription factor 4 (TCF4) (mouse (endogenous in E12.5 Nr5a1-GFP gonadal cells)) (UniProt Q60722)
Assay: co-IP; endogenous TCF4 immunoprecipitated from sorted XY Nr5a1-GFP cells (2 million cells / IP), eluate blotted for MED8; IgG IP in parallel

The chains behind the UniProt entries cited, without tags or fusion partners.
UniProt Q60722: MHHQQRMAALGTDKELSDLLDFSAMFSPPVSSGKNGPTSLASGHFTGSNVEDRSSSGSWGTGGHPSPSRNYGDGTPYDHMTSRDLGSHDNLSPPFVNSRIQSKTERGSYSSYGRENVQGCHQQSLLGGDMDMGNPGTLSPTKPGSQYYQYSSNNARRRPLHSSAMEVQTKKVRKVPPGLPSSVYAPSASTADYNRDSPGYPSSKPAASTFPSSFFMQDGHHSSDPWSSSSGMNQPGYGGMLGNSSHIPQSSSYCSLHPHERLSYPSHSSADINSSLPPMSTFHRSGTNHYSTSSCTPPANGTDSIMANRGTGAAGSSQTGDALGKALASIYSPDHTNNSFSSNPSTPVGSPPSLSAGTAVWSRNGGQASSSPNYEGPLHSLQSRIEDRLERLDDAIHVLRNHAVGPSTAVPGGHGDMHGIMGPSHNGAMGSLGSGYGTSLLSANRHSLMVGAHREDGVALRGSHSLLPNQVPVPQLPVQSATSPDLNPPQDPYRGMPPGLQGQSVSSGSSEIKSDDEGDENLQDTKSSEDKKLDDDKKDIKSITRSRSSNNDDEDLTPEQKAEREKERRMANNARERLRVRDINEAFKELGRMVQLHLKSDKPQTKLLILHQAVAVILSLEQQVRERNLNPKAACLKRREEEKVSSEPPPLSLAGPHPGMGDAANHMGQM

B1: Mediator 8 (protein, UniProt Q9D7W5 1-268)
chain: MQREEKQLEASLDALLNQVADLKNSLGSFIYKLENEYDRLTWPSVLDSFALLSGQLNTLNKVLKHEKTPLFRNQVIIPLVLSPDRDEDLMRQTEGRVPVFSHEVVPDHLRTKPDPEVEEQEKQLTTDAARIGADAAQKQIQSLNKMCSNLLEKISKEERESESGGLRPNKQTFNPGDTNALVAAVAFGKGLSNWRPSGSSGPGQPGQPGAGTILAGASGLPQVQMPGAPNQQQPMLSGVQMAQAGQPGKMPSGIKTNIKSASMHPYQR
binding: binds

Source: publication doi:10.1101/2025.02.28.640455
